Patent publication US20150044245A1, “PARTIAL MHC CONSTRUCTS AND METHODS OF USE” (Oregon Health & Science University, priority 2012, published 2015)
No constants are given. Whether binding was seen depends on the method and setting. For part of these data: Binding seen in cells or lysates may run through a third protein. Some results given as binding are weak or reduced against the parent protein; the word gives no strength.

Assays:
[1] = biological target: T1, CD74 (MHC class II invariant chain) of DR*1501-Tg mouse splenocytes and monocytes (mouse) (UniProt P04441); experiment: direct binding of FITC-labeled constructs to immune-purified CD74
T1 sequence (surface biotinylated in the immunoprecipitation experiments, looked up): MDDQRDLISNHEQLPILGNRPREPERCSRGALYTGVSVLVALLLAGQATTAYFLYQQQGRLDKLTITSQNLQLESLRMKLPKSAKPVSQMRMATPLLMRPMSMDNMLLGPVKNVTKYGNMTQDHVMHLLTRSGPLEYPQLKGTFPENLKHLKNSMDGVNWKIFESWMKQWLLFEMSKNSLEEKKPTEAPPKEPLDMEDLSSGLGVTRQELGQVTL

[2] = biological target: T1, CD74 (MHC class II invariant chain) of DR*1501-Tg mouse splenocytes and monocytes (mouse); experiment: conclusion from co-immunoprecipitation, competition and direct binding
[3] = biological target: T1, CD74 (MHC class II invariant chain) of DR*1501-Tg mouse splenocytes and monocytes (mouse); experiment: FITC-labeled construct incubated with bead-immunopurified CD74; SDS-PAGE scanned for FITC

Measured: binding

B1: DR-α1 domain alone (no DR2-β1 domain or peptide) (other, UniProt P01903 26-109, looked up)
chain: IKEEHVIIQAEFYLNPDQSGEFMFDFDGDEIFHVDMAKKETVWRLEEFGRFASFEAQGALANIAVDKANLEIMTKRSNYTPITN
modifications: labeled with FITC in the direct binding assays
notes: domain: α1
binds: [1] | [2] | [3]
